Measured values published in patent US20260232768A1, “TREATMENT OF ATOPIC DERMATITIS WITH POLYETHYLENE GLYCOL-MODIFIED INTERLEUKIN 2, GLUCOCORTICOID AND HYALURONIC ACID” (priority 2023, published 2026).
At least one structure is not confirmed: it was looked up by name or label, or the drawing left a doubt.

How the values were obtained:
Type in all cases: in vivo, BALB/c mice
[1] = test system: CD25+FOXP3+ Treg cells in skin CD4+ cells; experiment: Ratio of Treg cells in skin of AD model mice via flow cytometry; conditions: after 3 days of topical administration
[2] = test system: skin thickness and inflammatory cell infiltration; experiment: Skin tissue pathological H&E staining in AD model mice; conditions: after 3 days of topical administration
serum IgE = experiment: Mouse serum IgE levels by ELISA in AD model mice
[3] = test system: skin inflammatory factors IL-4, IL-13, IL-17 and IFN-γ; experiment: Skin cytokine expression by real-time PCR in AD model mice
[4] = compared with the control group

## CCCC1O[C@@H]2C[C@H]3[C@@H]4CCC5=CC(=O)C=C[C@]5(C)[C@H]4[C@@H](O)C[C@]3(C)[C@]2(C(=O)CO)O1 (stereo partly shown) [Budesonide alone, budesonide]
[1]
  effect on proportion of Treg cells in skin (in words): increase of Treg cell proportion in skin was statistically different
[2]
  skin thickness and inflammatory cell infiltration in pathological section (in words): relatively reduced
Serum IgE
  serum IgE concentration (ELISA, in words): decreased
[3]
  IFN-γ expression in skin (RT-PCR, in words): no difference
[3]; [4]
  expression of skin IL-4 (RT-PCR, in words): downregulated
  expression of skin IL-13 (RT-PCR, in words): downregulated
  expression of skin IL-17 (RT-PCR, in words): downregulated
